PubChem BioAssay AID686943 | Drosophila RNAi Screening Center, 2013

Aim: 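Fly genes whose loss alters ERK activation after insulin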 (primary screen)
Cell system: Drosophila S2R+ haemocyte-like cells expressing YFP-tagged ERK (Rolled)
Reagent: long dsRNA against Drosophila genes
Conditions: insulin stimulation versus unstimulated cells; dose and duration not given
Read-out: 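Antibody staining for doubly phosphorylated ERK divided by ERK-YFP signal, as plate z-scores, in insulin-treated and untreated cells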
Scale: replicate 1, z-score of dpERK with insulin and replicate 2, z-score of dpERK with insulin: higher = more active ERK per ERK-YFP after insulin
In all, the deposit lists about 23,000 reagents; this is an unselected part of those with a known target gene and a result. 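Extra replicates exist only for a retested subset of genes; insulin dose and duration not given; both raised and lowered dpERK matter.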 Further read-outs or replicates are left out here. The record does not give: the amount of reagent, the time to read-out.

Which result is listed for CG15464 (retired record) [DRSC18047]?
replicate 1, z-score of dpERK with insulin: 0.55; replicate 2, z-score of dpERK with insulin: 0.54

Which result is listed for CG15464 (retired record) [DRSC22086]?
replicate 1, z-score of dpERK with insulin: 0.71; replicate 2, z-score of dpERK with insulin: -0.63

With CG1640 [DRSC19750], how do the results read?
replicate 1, z-score of dpERK with insulin: 0.83; replicate 2, z-score of dpERK with insulin: 0.7

With PIG-Q [DRSC19138], what was measured?
replicate 1, z-score of dpERK with insulin: -0.46; replicate 2, z-score of dpERK with insulin: -1.6

Which result is listed for CG31019 [DRSC13994]?
replicate 1, z-score of dpERK with insulin: -0.57; replicate 2, z-score of dpERK with insulin: -0.19

How did the screen score CG9119 [DRSC08620]?
replicate 1, z-score of dpERK with insulin: -1.41; replicate 2, z-score of dpERK with insulin: -0.18

With CG14102 [DRSC10103], how do the results read?
replicate 1, z-score of dpERK with insulin: 1.53; replicate 2, z-score of dpERK with insulin: -0.19

What is on record for Gpo1 [DRSC07128]?
replicate 1, z-score of dpERK with insulin: 0.56; replicate 2, z-score of dpERK with insulin: 0.22

How did the screen score Or69a [DRSC11243]?
replicate 1, z-score of dpERK with insulin: 0.81; replicate 2, z-score of dpERK with insulin: 0.59

With Osi1 [DRSC12271], how do the results read?
replicate 1, z-score of dpERK with insulin: 0.48; replicate 2, z-score of dpERK with insulin: 0.44

How did the screen score Brf [DRSC13228]?
replicate 1, z-score of dpERK with insulin: -0.13; replicate 2, z-score of dpERK with insulin: 0.97

What is on record for Brf [DRSC14166]?
replicate 1, z-score of dpERK with insulin: 0.53; replicate 2, z-score of dpERK with insulin: -0.13

Which result is listed for Brf [DRSC14167]?
replicate 1, z-score of dpERK with insulin: -0.05; replicate 2, z-score of dpERK with insulin: 0.04

What is on record for CG11406 [DRSC04010]?
replicate 1, z-score of dpERK with insulin: -0.02; replicate 2, z-score of dpERK with insulin: -0.08

With CG11406 [DRSC04108], how do the results read?
replicate 1, z-score of dpERK with insulin: 0.57; replicate 2, z-score of dpERK with insulin: 0.79

Single entries from the list.
PIG-Q [DRSC19138], replicate 1, z-score of dpERK with insulin: -0.46
For “replicate 1, z-score of dpERK with insulin”, CG15464 (retired record) [DRSC22086] has 0.71
For “replicate 2, z-score of dpERK with insulin”, CG31019 [DRSC13994] is entered as -0.19
Gpo1 [DRSC07128], replicate 2, z-score of dpERK with insulin = 0.22

Continued:
For wmd [DRSC04436], what was measured?
replicate 1, z-score of dpERK with insulin: -0.33; replicate 2, z-score of dpERK with insulin: -1.49

For CG14971 [DRSC08430], what does the deposit list?
replicate 1, z-score of dpERK with insulin: -0.19; replicate 2, z-score of dpERK with insulin: 0.13

For CG13794 [DRSC02298], how do the results read?
replicate 1, z-score of dpERK with insulin: -0.17; replicate 2, z-score of dpERK with insulin: -0.91

With CG13577 [DRSC04213], what does the deposit list?
replicate 1, z-score of dpERK with insulin: -0.61; replicate 2, z-score of dpERK with insulin: -0.46

How did the screen score E23 [DRSC00425]?
replicate 1, z-score of dpERK with insulin: -5.17; replicate 2, z-score of dpERK with insulin: -3.26

With E23 [DRSC00593], what was measured?
replicate 1, z-score of dpERK with insulin: -0.05; replicate 2, z-score of dpERK with insulin: 0.5

With Es2 [DRSC18663], what does the deposit list?
replicate 1, z-score of dpERK with insulin: 0.69; replicate 2, z-score of dpERK with insulin: 0.59

What did the screen give for CG5727 [DRSC02882]?
replicate 1, z-score of dpERK with insulin: 0.21; replicate 2, z-score of dpERK with insulin: -0.25

How did the screen score l(1)G0469 [DRSC19412]?
replicate 1, z-score of dpERK with insulin: 0.66; replicate 2, z-score of dpERK with insulin: 0.5

For l(1)G0469 [DRSC19462], what was measured?
replicate 1, z-score of dpERK with insulin: -0.61; replicate 2, z-score of dpERK with insulin: 0.13

What is on record for CG34001 [DRSC09042]?
replicate 1, z-score of dpERK with insulin: -0.27; replicate 2, z-score of dpERK with insulin: 0.06

Which result is listed for Atg14 [DRSC14421]?
replicate 1, z-score of dpERK with insulin: -0.26; replicate 2, z-score of dpERK with insulin: 0.6

What is on record for glec [DRSC16958]?
replicate 1, z-score of dpERK with insulin: 0.12; replicate 2, z-score of dpERK with insulin: -0.36

With etaTry [DRSC07613], what was measured?
replicate 1, z-score of dpERK with insulin: -0.19; replicate 2, z-score of dpERK with insulin: 0.06

How did the screen score Taf8 [DRSC20363]?
replicate 1, z-score of dpERK with insulin: 0.12; replicate 2, z-score of dpERK with insulin: 0.86

With Ppt1 [DRSC17806], what does the deposit list?
replicate 1, z-score of dpERK with insulin: -0.12; replicate 2, z-score of dpERK with insulin: 0.03
